Some of the results follow. Shown are side measurements of this screen, not its main read-out; they come without a call. The list favours compounds with an active or inconclusive main result. Words in brackets tell the shape of the fitted curve; partial curves, single points and poor fits give uncertain potencies.
Assay: qHTS Assay to Find Inhibitors of Chronic Active B-Cell Receptor Signaling
Details: ABC-DLBCL IkBa-CBG/CBR reporter, luminescence ratio (green luciferase fused to IkBa over red control in TMD8 lymphoma cells), 4 h
Outline: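 Compounds up to 46 uM were incubated four hours with TMD8 cells whose green CBG68 luciferase is fused to IkappaBalpha; red CBR luminescence normalised the signal, and concentration-effect curves were fitted to fusion, red and ratio data.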

[1] = measured here: CBR red luminescence, cell number
[2] = measured here: IkBa-CBG green luminescence

| Compound | AC50 [1] | AC50 [2] |
| --- | --- | --- |
| O=C(COC(=O)c1ccccc1NC(=O)c1ccccc1)c1cccc([N+](=O)[O-])c1 | 4.11 µM [falling, partial curve] |  |
| Cc1[nH]c(=O)[nH]c(=O)c1S(=O)(=O)NCC12CC3CC(CC(C3)C1)C2 | 0.206 µM [rising, full curve, poor fit] |  |
| COc1cccc(C2NC(=S)NC(C)=C2C(=O)c2ccccc2)c1OC (stereo unspecified) | 8.91 µM [rising, partial curve, poor fit] | 8.91 µM [falling, partial curve] |
| COc1ccc(C(C)=O)cc1CSc1nc2cc(Cl)ccc2o1 | 1.46 µM [rising, partial curve] |  |
| O=C(Nc1nc2ccccc2[nH]1)c1cccc(Cl)c1 | 4.47 µM [falling, partial curve, poor fit] |  |
| CCOC(=O)C1CCN(C(=O)c2cc3c(C)cc(C)cc3[nH]2)CC1 | 0.447 µM [falling, full curve, poor fit] |  |
| O=C1C(Cl)=C(NC2CCCCC2)C(=O)N1Cc1ccccc1 | 5.62 µM [rising, partial curve] |  |
| CCOC(=O)CN1C(=O)CCSc2ccc(Cl)cc21 | 14.1 µM [rising, partial curve, poor fit] |  |
| CC1CCN(C(c2ccccc2)c2nnnn2C(C)(C)C)CC1 (stereo unspecified) | 0.731 µM [falling, partial curve, poor fit] |  |
| CCn1c(=O)c(C(=O)NNC(=O)c2ccccc2Br)c(O)c2ccccc21 | 0.631 µM [falling, full curve] |  |
| C[C@@H]1C[C@H]2[C@@H]3CCC4=CC(=O)C=C[C@]4(C)[C@@]3(F)[C@@H](O)C[C@]2(C)[C@H]1C(=O)CO | 0.092 µM [rising, full curve, poor fit] |  |
| CCc1noc(C)c1C(=O)Nc1nc(-c2ccccc2)cs1 | 29.1 µM [falling, single point] |  |
| Cc1ccc2nc(NCCc3ccc(Cl)cc3)c3nncn3c2c1 | 17.8 µM [rising, partial curve, poor fit] |  |
| CC/C(=N\NC(N)=O)c1ccc(OC)c(OC)c1 | 1.58 µM [rising, partial curve] |  |
| Cc1cc(C)c2c(-n3cccc3)nn(C)c2n1 | 0.1 µM [rising, full curve, poor fit] |  |
| Cc1cc(C)cc(NC(=O)C2CCCN2S(=O)(=O)c2cccc3cccnc23)c1 (stereo unspecified) | 5.01 µM [rising, partial curve, poor fit] |  |
| COc1ccc(C[C@H]2CN3C(=NC[C@@H]3Cc3ccc(O)cc3)N2C[C@H](C)NC(=O)c2ccc(C)c(Br)c2)cc1 | 14.1 µM [falling, partial curve] |  |
| CCc1ccc(N2CC(C(=O)N3CCCC3)CC2=O)cc1 (stereo unspecified) | 8.91 µM [rising, partial curve, poor fit] |  |
| O=C(COC(=O)c1cccc([N+](=O)[O-])c1)c1ccc(OCc2ccccc2)cc1 | 4.11 µM [rising, full curve, poor fit] |  |
| C=CCOC(=O)C1=C(C)NC(=S)NC1/C=C/c1ccccc1 (stereo unspecified) | 10 µM [falling, partial curve, poor fit] |  |
| CCc1cc2c(Nc3ccc(O)cc3)nc(C)nc2s1 | 35.5 µM [falling, single point] |  |

| Compound | AC50 [1] | AC50 [2] |
| --- | --- | --- |
| Cc1oc2c(c1C(=O)NCc1cccnc1)C(=O)c1ccccc1C2=O | 2.82 µM [falling, full curve] |  |
| CS(=O)(=O)Nc1ccc(C2=NN(C(=O)c3ccco3)C(c3cccc(F)c3)C2)cc1 (stereo unspecified) | 22.4 µM [falling, single point] |  |
| O=[N+]([O-])c1ccc(CN2CCCCCC2)s1 | 18.4 µM [rising, partial curve, poor fit] |  |
| O=C(NC(=S)N1CCN(Cc2ccccc2)CC1)c1ccccc1 | 29.1 µM [rising, single point] |  |
| CCOC(=O)/C=C(\C)Nc1cc(C)nn1-c1ccccc1 | 10 µM [falling, single point] |  |
| COCCCNC(=S)Nc1cccc(S(=O)(=O)NC2=NCCC2)c1 | 35.5 µM [rising, single point] |  |
| CCOc1ccc(CN(C)CC(O)COC(c2ccc(OC)cc2)c2ccc(OC)cc2)cc1 (stereo unspecified) | 14.1 µM [falling, partial curve] |  |
| COc1ccccc1NC(=O)c1c(C)nc2ccccc2c1C(=O)O | 35.5 µM [falling, single point] |  |
| Cc1ccccc1N(CC(=O)NCCc1ccccc1)C(=O)c1ccc(N2CCCC2)nc1 | 11.2 µM [falling, single point] |  |
| COc1ccc(/C=C/C(=O)NC(=S)NNC(=O)[C@H]2C[C@@H]2c2ccccc2)cc1OC | 3.98 µM [rising, single point] |  |
| O=C(c1ccc(F)cc1)C1CCN(C(=S)Nc2ccc(F)cc2)CC1 | 14.1 µM [falling, single point] |  |
| O=C(CSc1nnc(-c2ccccc2)c(-c2ccccc2)n1)Nc1ncc(Cl)cc1Cl | 0.411 µM [rising, partial curve, poor fit] |  |
| O=C(CCS(=O)(=O)c1ccccc1)Nc1nc2c(s1)CCCC2 | 23.1 µM [falling, single point] |  |
| CC(OC(=O)c1cccs1)C(=O)Nc1nc(-c2ccccc2)cs1 (stereo unspecified) |  | 6.51 µM [rising, partial curve, poor fit] |
| Cc1cc(C)n(CCC(=O)N=Nc2c(O)[nH]c3ccc(Br)cc23)n1 | 11.2 µM [falling, single point] |  |
| O=C(N/N=C/c1ccc(Cl)cc1)C1CC12CCC2 (stereo unspecified) | 14.1 µM [falling, single point] |  |
| Cc1c(C(=O)N2CCN(CCc3ccccn3)CC2)oc2ccc(Cl)cc12 | 14.1 µM [falling, single point] |  |
| COc1cccc(NC(=O)CC2C(=O)NC3CCCCC3N2C(=O)c2ccc(F)cc2)c1 (stereo unspecified) |  | 29.1 µM [falling, single point] |
| CCn1cnc2cc(NCc3ccccc3Cl)ccc21 | 4.47 µM [falling, partial curve] |  |
| CCCn1c(=O)c2c(c3ccccc31)OCC(=O)N2 | 2.91 µM [rising, partial curve, poor fit] |  |
| O=C(C[n+]1cccc(CNC(=O)c2ccc(OC(F)F)cc2)c1)Nc1ccc(F)cc1 | 29.1 µM [falling, single point] |  |

Single records, as listed above:
`CCCn1c(=O)c2c(c3ccccc31)OCC(=O)N2` reads AC50 [1]: 2.91 µM [rising, partial curve, poor fit]
`CS(=O)(=O)Nc1ccc(C2=NN(C(=O)c3ccco3)C(c3cccc(F)c3)C2)cc1` (stereo unspecified) reads AC50 [1]: 22.4 µM [falling, single point]
`O=C(NC(=S)N1CCN(Cc2ccccc2)CC1)c1ccccc1` reads AC50 [1]: 29.1 µM [rising, single point]
`Cc1ccccc1N(CC(=O)NCCc1ccccc1)C(=O)c1ccc(N2CCCC2)nc1` reads AC50 [1]: 11.2 µM [falling, single point]

Following part

| Compound | AC50 [1] | AC50 [2] |
| --- | --- | --- |
| CC(NC(=O)COC(=O)c1ccccc1SCC(=O)N1CCCC1)c1ccccc1 (stereo unspecified) | 20.6 µM [rising, partial curve, poor fit] |  |
| CN1CCc2c(sc(/N=C/c3cc(Cl)ccc3O)c2C#N)C1 | 20 µM [falling, single point] |  |
| COc1ccccc1-c1nc(C#N)c(N2CCCCCC2)o1 | 32.6 µM [falling, single point] |  |
| CCCNC(=O)c1ccccc1NC(=O)c1ccc(CSc2ccccc2)cc1 | 18.4 µM [rising, partial curve, poor fit] |  |
| Clc1nc(Nc2ccccc2)nc(Nc2ccccc2)n1 | 18.4 µM [falling, partial curve] |  |
| CCc1nccn1CCC(=O)N1CCc2c([nH]c3ccccc23)C1CC(C)C (stereo unspecified) | 11.2 µM [falling, partial curve, poor fit] |  |
| COc1ccc(N2CCN(C(=O)C(=O)c3c(C)n(C)c4ccccc34)CC2)cc1 | 14.1 µM [rising, partial curve, poor fit] |  |
| COc1ccnc(CSC(N)=Nc2ccccc2OC)c1 |  | 25.9 µM [falling, single point] |
| CN(C(=O)c1cccs1)c1ccccc1C(=O)O | 6.51 µM [rising, partial curve] |  |
| Cc1ccccc1NS(=O)(=O)c1ccc(NC(=O)CSCc2ccc(Br)cc2)cc1 | 29.1 µM [falling, single point] |  |
| CCSc1nnc(CNC(=O)C23CC4CC(CC(C4)C2)C3)n1Cc1ccccc1 | 32.6 µM [falling, partial curve, poor fit] | 23.1 µM [rising, partial curve, poor fit] |
| O=C(NN=Cc1ccccc1C(=O)O)c1ccc(NS(=O)(=O)c2cccs2)cc1 | 9.2 µM [falling, partial curve] |  |
| C/C(=N\NC(=O)CC(C)C)c1ccc(N2CCCCC2)cc1 | 0.82 µM [rising, partial curve, poor fit] |  |
| O=C(OCc1ccc([N+](=O)[O-])cc1)c1cc([N+](=O)[O-])ccc1N1CCOCC1 | 2.59 µM [rising, partial curve, poor fit] |  |
| Cn1c(=O)n(C)c2cc(NC(=O)CSc3nc4ccccc4c(=O)[nH]3)ccc21 | 3.16 µM [rising, full curve, poor fit] |  |
| O=C(c1ccc2nc(N3CCOCC3)sc2c1)N1CCCC1 | 29.1 µM [rising, single point] | 20.6 µM [falling, single point] |
| CCCCN(C)CC(O)Cn1cc(/C=C/C(=O)c2ccc(OCC)cc2)c2ccccc21 (stereo unspecified) | 15.8 µM [falling, single point] |  |
| Cc1ccc(NC(=O)CCSCCC(=O)Nc2ccc(C)c(C)c2)cc1C | 5.01 µM [falling, partial curve] |  |
| CSCCCN1CCCC(CO)(Cc2ccc(F)cc2)C1 (stereo unspecified) | 0.355 µM [rising, full curve, poor fit] |  |
| CC(=O)C1=C(O)C(=O)N(CCCCCC(=O)O)C1c1ccc(N(C)C)cc1 (stereo unspecified) | 20.6 µM [falling, partial curve, poor fit] |  |
| O=[N+]([O-])c1ccccc1/C=C/C=N/n1c(-c2ccc(Cl)cc2)n[nH]c1=S | 1.26 µM [rising, full curve, poor fit] |  |
